Primary screen of a compound library

Amino acid sequences for entries named in this document (tags omitted).
UniProt E9BF75, entry or part of it: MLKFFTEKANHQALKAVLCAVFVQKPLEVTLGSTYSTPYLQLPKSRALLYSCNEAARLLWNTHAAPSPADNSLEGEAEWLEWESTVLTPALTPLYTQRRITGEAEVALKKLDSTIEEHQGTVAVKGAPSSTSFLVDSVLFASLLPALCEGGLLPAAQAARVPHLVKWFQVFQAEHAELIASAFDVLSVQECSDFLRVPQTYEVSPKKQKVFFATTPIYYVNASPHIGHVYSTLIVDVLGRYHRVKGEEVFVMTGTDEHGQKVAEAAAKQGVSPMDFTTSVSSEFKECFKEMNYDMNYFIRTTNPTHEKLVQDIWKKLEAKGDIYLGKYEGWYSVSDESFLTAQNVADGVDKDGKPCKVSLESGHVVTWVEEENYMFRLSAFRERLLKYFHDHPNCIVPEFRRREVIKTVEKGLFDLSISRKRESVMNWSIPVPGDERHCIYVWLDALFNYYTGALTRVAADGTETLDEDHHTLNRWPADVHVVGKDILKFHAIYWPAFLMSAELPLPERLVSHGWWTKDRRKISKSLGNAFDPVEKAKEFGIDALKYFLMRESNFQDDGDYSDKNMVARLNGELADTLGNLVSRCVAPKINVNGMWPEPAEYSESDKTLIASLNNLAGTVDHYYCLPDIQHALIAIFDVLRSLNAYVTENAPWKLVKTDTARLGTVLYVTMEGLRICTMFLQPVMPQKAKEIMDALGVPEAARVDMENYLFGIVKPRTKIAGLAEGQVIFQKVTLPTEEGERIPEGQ

Measurements from “University of Dundee, Small-Polar-MMV Screening Library” (2021), ChEMBL document CHEMBL3988442.

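Methionyl-tRNA synthetase (putative), Leishmania donovani (UniProt E9BF75). Primary screen of methionyl-tRNA synthetase; the read-out is not stated. The test concentration is not given. Values are per cent inhibition. Of about 68,000 compounds tested this way, about 24 (0.035%) reached 50% or more in at least one test.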

Results are percentages, as filed.
The controls that fix the scale are not given in the record; negative values are as filed.
This is an unselected part of the compounds tested.

| Compound | Inhibition |
|---|---|
| `Cc1nc(CNC2CC(=O)N(CCc3cccc(Cl)c3)C2)c[nH]1` (configuration not stated) | 8.589 |
| `CN1CC(C(=O)NCCOc2ccc3c(c2)OCO3)CC1=O` (configuration not stated) | 15.36 |
| `Cc1cc2[nH]c(=O)c(=O)[nH]c2cc1S(=O)(=O)NC1CCC(C)CC1` (configuration not stated) | 11.7 |
| `COc1cc(OC)c(CNC(=O)NCC(=O)N2CCCC2)c(OC)c1` | 4.897 |
| `Cc1ccsc1C(=O)N1CC(C(=O)NC(C)C)C2(CCOCC2)C1` (configuration not stated) | 12.77 |
| `CCCc1nnc(N2CCN(c3ccccc3F)CC2)o1` | 15.76 |
| `Cc1cc(CNC(=O)c2ccc(C(C)N3CCCCC3)o2)[nH]n1` (configuration not stated) | -1.882 |
| `O=c1[nH]c2c(c(=O)n1C1CCCCC1)CCC2Nc1ccccc1Cl` (configuration not stated) | 2.905 |
| `COC[C@@H]1CCC[C@]12CN(CCc1ccccc1)CCO2` | 12.39 |
| `Cc1cccn2cc(CC(=O)N(CCN(C)C)CC3CCCO3)nc12` (configuration not stated) | -0.5602 |
| `CCCS(=O)(=O)N1CCC2(CC1)CN(C(=O)N(C)C)c1ccccc12` | 9.278 |
| `CCOc1ncccc1C(=O)N1CC=C(c2ccc(O)cc2)CC1` | 2.29 |
| `O=C(Nc1cnc2n1CCCC2)c1cccc(-n2cnnc2)c1` | 8.065 |
| `COC1COC2(CCN(S(=O)(=O)c3ccc(F)cc3)CC2)C1` (configuration not stated) | -0.5602 |
| `Cc1ccc(-c2cc(N)c(=O)n(C(C)C(=O)NC(C)C)n2)o1` (configuration not stated) | 13.52 |
| `CNS(=O)(=O)c1cccc(C(C)NCc2ccncc2)c1` (configuration not stated) | 7.692 |
| `Cc1ccc(Nc2ncnc3c2CCN(CC2CCOC2)CC3)cc1` (configuration not stated) | 16.06 |
| `CN(C)C(=O)N1CCC2(CCCN(CCOc3ccccc3)C2)C1` (configuration not stated) | 12.5 |
| `Cc1nnc2ccc(OCCNS(C)(=O)=O)nn12` | 14.37 |
| `Cc1ccc(=O)n(CC2(O)CCN(Cc3cc(C)c(O)c(C)c3)CC2)n1` | 9.247 |
| `COCCOc1ncccc1NCc1nc2ccccc2n1C` | 20.43 |
| `CCc1cc(=O)[nH]c(-c2ccc(NC(C)CN3CCOCC3)nc2)n1` (configuration not stated) | 16.67 |
| `CCOc1ncnc2c1CCN(C(=O)c1cnccn1)CC2` | 11.4 |
| `CN(C)c1ncccc1CNC(=O)N1CCN(C)c2ccccc2C1` | 13.77 |
| `Cc1csc(C2(NC(=O)CCc3ccncc3)CCCC2)n1` | 18.01 |
| `COCC(=O)N1CCN(C(=O)c2scnc2C)CC1` | 14.79 |
| `COc1cccc(S(=O)(=O)CCNCCn2cccn2)c1` | 8.935 |
| `Cn1ncc(C(=O)N2CCOCC2)c1Cl` | 18.34 |
| `CCc1ccsc1C(=O)NCCn1nc2ccccn2c1=O` | 20 |
| `CC(C)(C)NC(=O)Cn1nc(C2CC2)cc(C(F)(F)F)c1=O` | 12.32 |
| `CC(=O)N[C@@H]1CN(C(=O)CC2CC2)C[C@H]1O` | 13.29 |
| `COCCN1CCCn2cnc(CN(C)C(C)C)c2C1` | 4.762 |
| `CCOc1ccc(NC(=O)NC2CCc3nc(C)nn3C2)cc1Cl` (configuration not stated) | 18.12 |
| `COc1ccc(CN2CC(=O)N(c3ccc(C)cc3)CC2C)cc1O` (configuration not stated) | 10.31 |
| `O=C(CN1CCOC1=O)N1CC[C@@H](c2ccc3ccccc3c2)[C@H](O)C1` | 8.219 |
| `O=C1CO[C@H](c2ccc(NS(=O)(=O)Cc3ccccc3)cc2)[C@@H](CO)N1` | 8.271 |
| `Cc1nc(N2CCOCC2)nc2c1COCC21CCN(CC(C)C)C1` (configuration not stated) | 11.34 |
| `CC(C)(C)c1n[nH]c(C2CN(CCc3cccs3)CCO2)n1` (configuration not stated) | 14.75 |
| `CN1CCN(CC2(O)CCCN(C(=O)Cc3cccc(O)c3)CC2)CC1` (configuration not stated) | 19.62 |
| `O=C1Nc2ccccc2CN(CC2CCCC2)C12CCNC2` (configuration not stated) | 13.71 |
| `CN(Cc1cc(C2CC2)[nH]n1)C(=O)c1ccccc1C1CCNC1` (configuration not stated) | 3.911 |
| `CCc1nc(CNC2CCN(c3ccc(OC)cc3)CC2)cs1` | 19.73 |
| `O=S(=O)(c1ccccc1)N1C[C@@H]2CCN[C@@H]2C1` | 8.889 |
| `Cc1cc(C)nc(N2Cc3cnn(Cc4ccc(F)cc4)c3C2)n1` | 2.927 |
| `Cc1c(C(=O)N2CCC(c3nc(C)n4ccsc34)CC2)cnn1C` | 12.43 |
| `O=C(c1[nH]nc(C2CC2)c1Cl)N1CCN(C2CC2)CC1` | 14.54 |
| `COCCn1cc(CC(=O)Nc2nc[nH]n2)c2ccccc21` | 19.95 |
| `CC(C)(C)OC(=O)N1CC(=O)N(Cc2ccco2)CC(O)C1` (configuration not stated) | 6.849 |
| `CCc1nn(-c2cc(Oc3ccccc3)nc(C)n2)c(N)c1C#N` | 9.474 |
| `Cc1nc(C)n(CC2CCCCN2CC(=O)Nc2ccncc2)n1` (configuration not stated) | 2.834 |
| `CCOC(=O)c1cc2n(n1)CCCO2` | 8.869 |
| `Cc1cc2nc(SCC(=O)N3CCOCC3)n(C(C)C)c(=O)c2[nH]1` | 2.915 |
| `CN(CCN1CCCCCC1)C(=O)c1cc(CN2CCCC(O)C2)on1` (configuration not stated) | 5.867 |
| `NC(=O)CC1CCN(C(=O)CCOc2ccc(Cl)cc2)CC1` | 18.37 |
| `CN1CCO[C@@H]2CN(C(=O)NCc3ccccc3)CC[C@@H]2C1` | 3.618 |
| `O=C1CC[C@H]2CN(c3ncccc3F)CC[C@H]2N1CCc1ccccc1` | -0.3472 |
| `Cc1cccc(N2CCCC2c2nc(C)ncc2CN(C)C)n1` (configuration not stated) | 18.99 |
| `CN(Cc1ccco1)[C@@H]1CN(CC2CCOCC2)[C@@H]2CCCO[C@H]12` | 14.29 |
| `CCOc1ccc(C(=O)N2CCCC2c2c(C)nn(C)c2Cl)cn1` (configuration not stated) | 23.33 |
| `Cc1ccc(S(=O)(=O)NCCNC(=O)c2ccoc2)cc1F` | 4.878 |
| `Cc1nc(COc2ccc(CNCCn3cccn3)cc2)cs1` | 5.305 |
| `C[C@H]1C(=O)NC[C@H]2CN(Cc3cccc(F)c3)C[C@H]21` | 18.27 |
| `CCCC(=O)N1CCC(O)(Cn2c(CC)nc3ccccc3c2=O)CC1` | 12.67 |
| `CC(C)OCCn1nnnc1Cc1ccc(Br)cc1` | -143.4 |
| `CC(C)N(Cc1ccc(Cl)c(Cl)c1)C(=O)Cn1cncn1` | 8.043 |
| `CN(CC(N)=O)C(=O)CCCn1ccc2cc(Cl)ccc21` | 2.375 |
| `CCOc1ccc2[nH]c(=O)c(CN3CCCC(CO)(CO)C3)cc2c1` | 14.44 |
| `Cc1nn(C)c2c(=O)n(Cc3ccc(Cl)cc3)nnc12` | 17.34 |
| `CCc1ccc(-c2cc(C(F)(F)F)nc(N3CCC(N)CC3)n2)cc1` | 43.88 |
| `Cc1ccc(C2(CN3CCCC3)CCNCC2)nc1` | 14.13 |
| `c1cn(Cc2nnc(C3CCN(C4CCOCC4)CC3)n2C2CC2)cn1` | 11.71 |
| `CS(=O)(=O)NC1CCN(CCc2ccccc2)CC1` | 16.32 |
| `c1cc(CNCC2Cn3nncc3CO2)cs1` (configuration not stated) | -4.762 |
| `O=C(CO)N1CCCC(c2cc(C(F)(F)F)[nH]n2)C1` (configuration not stated) | 8.924 |
| `O=C(Nc1cnn(CCN2CCOCC2)c1)c1ccccc1O` | 14.29 |
| `CCOCCCn1c(NC(=O)c2ccc(C)nc2)nc2ccccc21` | 15.79 |
| `CC(C)c1nnc2ccc(N3CCC(C(=O)NC4CC4)CC3)nn12` | 13.03 |
| `CC(=O)N1CCN(C(=O)CCOc2ccc(C(C)C)cc2)CC1` | 17.35 |
| `CC(=O)N1CCCC(Cc2cncc(Br)c2)C1` (configuration not stated) | 20.34 |
| `COc1ccc2cc(C3CN(C(=O)N(C)C)CCO3)ccc2c1` (configuration not stated) | 0 |
| `Cc1ccc(-n2nc(C)c3c(C)cc(OCC(=O)NC(C)C)nc32)cc1` | 11.7 |
| `Cc1ccccc1C(C)NC(=O)Cc1c(C)nc2cc(=O)[nH]n2c1C` (configuration not stated) | 12.78 |
| `O=C(O)c1cc2n(n1)CCCN(C(=O)CCc1c[nH]c3ccccc13)C2` | 13.07 |
| `O=C([C@H]1C[C@@H]2CCN(C3CCOCC3)C[C@H]2O1)N1CCCC1` | 12.69 |
| `Cc1nc(N2CC[C@@H](NC(=O)c3cnccn3)[C@H](O)C2)c2ccsc2n1` | 15.58 |
| `CN(C)C(=O)N1Cc2nnn(C)c2C(COCc2cccnc2)C1` (configuration not stated) | 5.263 |
| `O=C1NC2(CCN(CC(=O)N3CCOCC3)CC2)Nc2ccccc21` | 13.98 |
| `CC(C)c1nc(C2CCCN(C(=O)CN3CCCNC3=O)C2)no1` (configuration not stated) | 12.23 |
| `Cc1ccc(CN2CCC(CNC(=O)Cn3cncn3)CC2)cc1` | 14.78 |
| `CCc1cnc(CN(C)C2CCN(c3sccc3C#N)C2=O)s1` (configuration not stated) | 16.16 |
| `CCOC(=O)c1sc2ccsc2c1CNC(=O)CCOC` | 4.762 |
| `Cc1cc(CN(C)C2CCCN(c3cccnn3)C2)no1` (configuration not stated) | 23.08 |
| `CN(C)C(C)(C)CNC(=O)C(C)(C)c1ccccc1F` | 8.85 |
| `COCC1CN(C(=O)Cc2ccccn2)Cc2cn(CC3CC3)nc21` (configuration not stated) | 5.882 |
| `O=C(c1ccccc1F)N1CCN(c2ccc(-n3cccc3)nn2)CC1` | 10.87 |